PubChem BioAssay AID1159599 – NIAID | 2016

Purpose: 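Effect of knocking down TLR signalling components on Tnf reporter after LPS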
Cell system: mouse RAW264.7 G9 macrophage reporter clone cells
Reagent: single siRNA against mouse genes
Timing: 48 to 72 h after siRNA transfection, LPS for the last 16 h
Challenge: LPS (Salmonella minnesota R595), 16 h before fixation; dose not stated
Read-out: 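High-content imaging of red fluorescence driven by the Tnf promoter after LPS, background subtracted, scored per siRNA as a plate-wise median/MAD robust z-score, replicate mean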
Scale: Tnf reporter z-score: higher = stronger Tnf promoter reporter signal after LPS
Call rule: 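Called active if the mean z-score over replicates passes 1.5 in either direction, up or down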
Calls: active = strong change either way; inactive = little change
This is a random part of 756 deposited reagents. Over the whole deposit, 130 (17%) got an active call. 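Calls are two-sided: actives include siRNAs that raised the Tnf reporter as well as ones that lowered it.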 The numbers tell different reagents against one gene apart. The record does not give: the amount of reagent.

Knock-down of Ly86 #1 gave: Tnf reporter z-score, replicate mean -0.15; inactive. For Ly86 #2, the values are Tnf reporter z-score, replicate mean 0.218; inactive. Against Ly86 #3, the values are Tnf reporter z-score, replicate mean -1.2; inactive. Depletion of Ly86 #4 resulted in: Tnf reporter z-score, replicate mean 0.792; inactive. Depletion of Ly86 #5 gave: Tnf reporter z-score, replicate mean 1.22; inactive. After knock-down of Ly86 #6, the screen gave Tnf reporter z-score, replicate mean -0.31; inactive.

Depletion of Tbk1 #1 gave: Tnf reporter z-score, replicate mean -0.114; inactive. After knock-down of Tbk1 #2 the results were Tnf reporter z-score, replicate mean 0.112; inactive. Tbk1 #3 gave Tnf reporter z-score, replicate mean -0.149; inactive. For Tbk1 #4 the deposit lists Tnf reporter z-score, replicate mean 0.982; inactive. Depletion of Tbk1 #5 came out at: Tnf reporter z-score, replicate mean 0.0227; inactive. Depletion of Tbk1 #6 gave: Tnf reporter z-score, replicate mean 1.23; inactive.

Knock-down of Map2k1 #1 gave: Tnf reporter z-score, replicate mean 0.13; inactive. Map2k1 #2 showed Tnf reporter z-score, replicate mean -0.902; inactive. Depletion of Map2k1 #3 gave: Tnf reporter z-score, replicate mean -0.977; inactive. After knock-down of Map2k1 #4, the record shows Tnf reporter z-score, replicate mean -0.0743; inactive. Knock-down of Map2k1 #5 resulted in: Tnf reporter z-score, replicate mean -1.72; active. Map2k1 #6 gave Tnf reporter z-score, replicate mean -0.658; inactive.

With knock-down of Relb #1 the results were Tnf reporter z-score, replicate mean -0.284; inactive. Relb #2 gave Tnf reporter z-score, replicate mean -0.0301; inactive. After knock-down of Relb #3 the results were Tnf reporter z-score, replicate mean -1.27; inactive. Relb #4 scored Tnf reporter z-score, replicate mean 0.688; inactive. After knock-down of Relb #5, the record shows Tnf reporter z-score, replicate mean -2.23; active. With knock-down of Relb #6 the results were Tnf reporter z-score, replicate mean -0.939; inactive.

After knock-down of Irf9 #1 the results were Tnf reporter z-score, replicate mean 2.22; active. Silencing of Irf9 #2 gave: Tnf reporter z-score, replicate mean 0.413; inactive. Against Irf9 #3, the values are Tnf reporter z-score, replicate mean 0.0436; inactive. For Irf9 #4 the deposit lists Tnf reporter z-score, replicate mean 0.753; inactive. For Irf9 #5, the entry reads Tnf reporter z-score, replicate mean 1.18; inactive. Against Irf9 #6, the values are Tnf reporter z-score, replicate mean -0.615; inactive.

Egr1 #1 scored Tnf reporter z-score, replicate mean -0.923; inactive. Depletion of Egr1 #2 gave: Tnf reporter z-score, replicate mean -2.19; active. For Egr1 #3 the deposit lists Tnf reporter z-score, replicate mean -2.25; active. Egr1 #4 scored Tnf reporter z-score, replicate mean -0.147; inactive. With knock-down of Egr1 #5 the results were Tnf reporter z-score, replicate mean -1.5; inactive. Knock-down of Egr1 #6 gave: Tnf reporter z-score, replicate mean -0.367; inactive.

2 entries from above, reformatted.
Relb #2
- Tnf reporter z-score, replicate mean: -0.0301
- call: inactive

Relb #3
- Tnf reporter z-score, replicate mean: -1.27
- call: inactive
